Values from PubChem BioAssay AID652243 (Drosophila RNAi Screening Center, 2013)
Purpose: 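Knock-downs that decrease or increase androgen receptor reporter signal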 (primary screen). Cell system: Drosophila S2R+ cells. Reagents: long dsRNA against Drosophila genes. Duration: 72 h (48 h, then 24 h hormone). Treatment: synthetic androgen R1881 at 10 nM for 24 h. Read-out: 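Per-well raw luminescence of the androgen-driven firefly reporter and of the Renilla control, two replicates each, without normalisation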. Scale: firefly reporter light: higher = more light from androgen-responsive reporter; Renilla control light: higher = more constitutive control signal (cell number, transfection). Call rule: 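Across duplicate plates, a knock-down whose log firefly/Renilla ratio shifted a set fold down or up from the GFP/LacZ control mean was a hit; the downward cut appears as both 1.5 and 3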. Calls: active = hit: reporter lowered or raised; inactive = no hit.
The screen tested about 24,000 reagents; this is a random part of those that have a named target and a result. Over the whole deposit, 246 (1%) got an active call. 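Plates not normalised; calls are printed but the firefly/Renilla ratio behind them is not deposited; fold cut for lowering reported inconsistently.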 Raw values vary from plate to plate and are shown uncorrected. Not stated in the record: the amount of reagent.

| target | DRSC id | firefly reporter light, replicate 1 | firefly reporter light, replicate 2 | Renilla control light, replicate 1 | Renilla control light, replicate 2 | outcome |
| --- | --- | --- | --- | --- | --- | --- |
| CG34163 | DRSC38917 | 9.56e5 | 8.02e5 | 1.87e6 | 1.25e6 | inactive |
| CG3817 | DRSC15515 | 48944 | 1.35e5 | 4.12e5 | 4.57e5 | inactive |
| CG3817 | DRSC27548 | 2.32e5 | 2.20e5 | 8.27e5 | 9.19e5 | inactive |
| CG33143 | DRSC04151 | 3.29e5 | 3.26e5 | 2.61e6 | 2.00e6 | inactive |
| CG33143 | DRSC04454 | 1.68e5 | 1.58e5 | 1.55e6 | 1.22e6 | inactive |
| CG33143 | DRSC27587 | 2.25e5 | 2.60e5 | 4.58e5 | 6.98e5 | inactive |
| mRpS14 (mitochondrial ribosomal protein S14) | DRSC19444 | 1.41e5 | 1.33e5 | 4.49e5 | 4.28e5 | inactive |
| CG9525 | DRSC03249 | 1.88e5 | 1.68e5 | 1.48e6 | 1.33e6 | inactive |
| Der-1 (Derlin-1) | DRSC00301 | 9.40e5 | 1.07e6 | 2.52e6 | 2.36e6 | inactive |
| fry (furry) | DRSC08993 | 1.41e5 | 1.57e5 | 3.44e5 | 3.38e5 | inactive |
| fry (furry) | DRSC10172 | 1.90e5 | 2.09e5 | 2.23e6 | 1.14e6 | inactive |
| fry (furry) | DRSC10709 | 1.25e5 | 1.12e5 | 1.73e6 | 1.39e6 | inactive |
| fry (furry) | DRSC10712 | 2.78e5 | 2.02e5 | 4.94e5 | 5.02e5 | inactive |
| BigH1 (Histone H1 variant BigH1) | DRSC15491 | 41062 | 84902 | 4.70e5 | 8.14e5 | inactive |
| BigH1 (Histone H1 variant BigH1) | DRSC27817 | 2.36e5 | 2.19e5 | 3.33e5 | 6.34e5 | inactive |
| Tsp42Eg (Tetraspanin 42Eg) | DRSC06112 | 1.01e6 | 8.21e5 | 2.07e6 | 2.60e6 | inactive |
| Ypel (Yippee-like) | DRSC17996 | 1.24e5 | 1.41e5 | 8.71e5 | 8.50e5 | inactive |
| Ypel (Yippee-like) | DRSC26440 | 3.18e5 | 3.75e5 | 7.84e5 | 9.72e5 | inactive |
| CD98hc (CD98 heavy chain) | DRSC15453 | 72334 | 73638 | 2.11e6 | 1.45e6 | inactive |
| hrm (hermes) | DRSC04853 | 3.46e5 | 3.99e5 | 2.09e6 | 2.26e6 | inactive |
| dnd (dead end) | DRSC16064 | 2.92e5 | 2.45e5 | 3.07e6 | 3.00e6 | inactive |
| Orc5 (Origin recognition complex subunit 5) | DRSC03390 | 2.50e5 | 1.90e5 | 1.25e6 | 1.62e6 | inactive |
| Orc5 (Origin recognition complex subunit 5) | DRSC28207 | 6.40e5 | 5.82e5 | 1.48e6 | 1.39e6 | inactive |
| gl (glass) | DRSC27242 | 1.87e5 | 1.86e5 | 4.13e5 | 4.43e5 | inactive |
